The list shows a part of the results.

Sequences of proteins named here, by UniProt entry; tags and fusion partners are left off. A change or cut given only in a name is not applied to a line headed by its entry.
UniProt Q5VTE0, whole entry, looked up: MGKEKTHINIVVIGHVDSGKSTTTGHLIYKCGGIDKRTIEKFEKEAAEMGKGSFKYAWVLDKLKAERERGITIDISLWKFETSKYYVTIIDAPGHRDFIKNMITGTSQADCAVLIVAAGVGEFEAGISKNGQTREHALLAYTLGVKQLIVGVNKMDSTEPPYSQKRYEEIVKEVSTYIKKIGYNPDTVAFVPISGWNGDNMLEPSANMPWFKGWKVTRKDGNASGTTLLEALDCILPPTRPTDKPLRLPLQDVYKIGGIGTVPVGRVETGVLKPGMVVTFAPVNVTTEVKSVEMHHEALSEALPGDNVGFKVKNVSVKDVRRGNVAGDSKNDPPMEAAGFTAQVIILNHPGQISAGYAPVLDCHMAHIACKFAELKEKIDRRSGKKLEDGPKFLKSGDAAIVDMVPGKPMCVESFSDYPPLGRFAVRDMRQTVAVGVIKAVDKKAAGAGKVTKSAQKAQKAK
UniProt P55039: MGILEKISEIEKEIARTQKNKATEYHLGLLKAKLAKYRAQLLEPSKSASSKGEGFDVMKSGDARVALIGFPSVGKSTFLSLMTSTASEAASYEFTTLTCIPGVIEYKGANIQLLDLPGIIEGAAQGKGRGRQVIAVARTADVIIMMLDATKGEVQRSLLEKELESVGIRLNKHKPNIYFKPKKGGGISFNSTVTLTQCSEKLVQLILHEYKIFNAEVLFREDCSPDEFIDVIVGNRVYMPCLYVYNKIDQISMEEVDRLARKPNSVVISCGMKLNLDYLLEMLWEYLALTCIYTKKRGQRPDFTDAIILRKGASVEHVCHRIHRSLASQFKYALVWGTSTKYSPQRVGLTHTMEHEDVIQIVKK
UniProt P23919: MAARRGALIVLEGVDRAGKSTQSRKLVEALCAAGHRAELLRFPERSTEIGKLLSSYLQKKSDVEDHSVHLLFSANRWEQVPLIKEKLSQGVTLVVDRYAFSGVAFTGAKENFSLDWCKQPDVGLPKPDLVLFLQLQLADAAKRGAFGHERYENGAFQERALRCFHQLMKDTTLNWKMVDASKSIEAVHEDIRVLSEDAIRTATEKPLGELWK
UniProt Q5JPH6: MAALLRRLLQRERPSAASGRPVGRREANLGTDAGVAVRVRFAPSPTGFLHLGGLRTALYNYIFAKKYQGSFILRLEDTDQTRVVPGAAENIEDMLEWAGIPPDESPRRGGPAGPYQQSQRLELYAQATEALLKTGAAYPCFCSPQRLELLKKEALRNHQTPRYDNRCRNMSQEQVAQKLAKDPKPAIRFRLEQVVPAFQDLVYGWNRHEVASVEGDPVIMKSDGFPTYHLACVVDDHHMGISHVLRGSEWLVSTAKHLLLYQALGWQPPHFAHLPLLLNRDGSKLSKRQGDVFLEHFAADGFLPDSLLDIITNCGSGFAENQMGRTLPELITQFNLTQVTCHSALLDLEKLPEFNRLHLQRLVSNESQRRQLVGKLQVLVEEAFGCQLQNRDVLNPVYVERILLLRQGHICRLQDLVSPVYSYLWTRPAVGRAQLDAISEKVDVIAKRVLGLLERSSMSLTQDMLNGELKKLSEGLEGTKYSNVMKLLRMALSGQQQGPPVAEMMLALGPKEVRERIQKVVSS
UniProt P41567, whole entry, looked up: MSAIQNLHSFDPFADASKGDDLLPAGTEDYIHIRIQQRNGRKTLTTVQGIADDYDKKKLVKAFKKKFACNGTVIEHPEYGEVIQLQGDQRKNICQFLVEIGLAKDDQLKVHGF
UniProt P47813, whole entry, looked up: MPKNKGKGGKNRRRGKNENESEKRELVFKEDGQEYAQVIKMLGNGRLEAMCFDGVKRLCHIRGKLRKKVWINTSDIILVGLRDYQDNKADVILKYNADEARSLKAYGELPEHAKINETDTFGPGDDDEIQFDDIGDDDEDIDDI
UniProt Q13011: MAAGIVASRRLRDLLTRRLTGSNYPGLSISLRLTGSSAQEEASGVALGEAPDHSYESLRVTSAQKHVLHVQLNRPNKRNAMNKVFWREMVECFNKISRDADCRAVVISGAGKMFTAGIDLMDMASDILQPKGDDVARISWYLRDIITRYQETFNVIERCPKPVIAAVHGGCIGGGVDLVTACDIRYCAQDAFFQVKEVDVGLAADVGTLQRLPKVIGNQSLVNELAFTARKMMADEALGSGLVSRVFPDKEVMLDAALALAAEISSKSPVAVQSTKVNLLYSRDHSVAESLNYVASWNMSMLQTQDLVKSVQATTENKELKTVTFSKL
UniProt P24534: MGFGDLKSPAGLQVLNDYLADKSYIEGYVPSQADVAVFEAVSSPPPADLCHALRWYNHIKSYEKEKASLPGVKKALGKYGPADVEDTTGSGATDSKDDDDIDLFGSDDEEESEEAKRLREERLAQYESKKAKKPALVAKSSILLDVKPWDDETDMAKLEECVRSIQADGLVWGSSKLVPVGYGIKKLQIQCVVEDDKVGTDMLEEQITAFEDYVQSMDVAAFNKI
UniProt Q96DC8: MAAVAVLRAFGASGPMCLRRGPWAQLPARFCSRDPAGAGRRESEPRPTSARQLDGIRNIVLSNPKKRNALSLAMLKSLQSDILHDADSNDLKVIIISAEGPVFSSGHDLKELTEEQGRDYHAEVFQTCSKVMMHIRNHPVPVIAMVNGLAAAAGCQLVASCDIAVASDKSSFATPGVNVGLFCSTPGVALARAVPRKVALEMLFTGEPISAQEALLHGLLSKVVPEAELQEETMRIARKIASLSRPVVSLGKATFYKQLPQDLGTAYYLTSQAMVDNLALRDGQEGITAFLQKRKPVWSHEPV
UniProt Q01658: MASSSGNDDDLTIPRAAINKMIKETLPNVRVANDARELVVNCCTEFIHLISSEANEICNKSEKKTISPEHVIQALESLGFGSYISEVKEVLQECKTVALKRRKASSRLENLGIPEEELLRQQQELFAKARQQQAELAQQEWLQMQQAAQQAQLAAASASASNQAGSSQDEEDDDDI
UniProt P63172, whole entry, looked up: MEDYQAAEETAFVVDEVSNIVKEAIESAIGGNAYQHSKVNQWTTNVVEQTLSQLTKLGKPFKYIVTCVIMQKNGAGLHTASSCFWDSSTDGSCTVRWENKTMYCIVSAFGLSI
UniProt Q9BQC3: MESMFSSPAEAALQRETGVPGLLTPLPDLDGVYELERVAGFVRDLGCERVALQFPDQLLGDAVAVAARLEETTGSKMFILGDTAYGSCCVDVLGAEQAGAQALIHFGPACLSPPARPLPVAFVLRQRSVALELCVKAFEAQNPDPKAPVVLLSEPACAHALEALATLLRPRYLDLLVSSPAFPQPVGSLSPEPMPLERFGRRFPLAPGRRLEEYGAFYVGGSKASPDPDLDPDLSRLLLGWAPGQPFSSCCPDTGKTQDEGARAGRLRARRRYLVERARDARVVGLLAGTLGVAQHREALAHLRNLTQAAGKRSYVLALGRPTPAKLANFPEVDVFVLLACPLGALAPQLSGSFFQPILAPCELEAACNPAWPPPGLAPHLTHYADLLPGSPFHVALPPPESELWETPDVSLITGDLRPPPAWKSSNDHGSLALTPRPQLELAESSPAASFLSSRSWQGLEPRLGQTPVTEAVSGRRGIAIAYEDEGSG
UniProt Q9BVJ7: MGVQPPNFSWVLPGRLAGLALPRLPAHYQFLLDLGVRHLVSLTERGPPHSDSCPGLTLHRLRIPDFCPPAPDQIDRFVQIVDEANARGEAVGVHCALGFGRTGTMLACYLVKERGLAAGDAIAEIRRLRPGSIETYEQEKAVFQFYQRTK
UniProt O60869: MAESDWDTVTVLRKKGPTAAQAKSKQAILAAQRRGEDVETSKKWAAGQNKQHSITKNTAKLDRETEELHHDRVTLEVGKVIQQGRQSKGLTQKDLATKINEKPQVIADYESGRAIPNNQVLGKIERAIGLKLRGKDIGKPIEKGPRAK
EEF1AKMT2, A0A494BZY7, UniProt A0A494BZY7, whole entry, looked up: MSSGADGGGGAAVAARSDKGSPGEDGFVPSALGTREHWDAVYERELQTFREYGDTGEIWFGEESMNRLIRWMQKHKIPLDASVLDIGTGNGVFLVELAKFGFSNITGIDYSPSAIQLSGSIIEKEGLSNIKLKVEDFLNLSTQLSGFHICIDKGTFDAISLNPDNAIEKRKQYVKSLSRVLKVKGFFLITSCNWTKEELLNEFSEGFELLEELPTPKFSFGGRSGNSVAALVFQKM
UniProt Q16254: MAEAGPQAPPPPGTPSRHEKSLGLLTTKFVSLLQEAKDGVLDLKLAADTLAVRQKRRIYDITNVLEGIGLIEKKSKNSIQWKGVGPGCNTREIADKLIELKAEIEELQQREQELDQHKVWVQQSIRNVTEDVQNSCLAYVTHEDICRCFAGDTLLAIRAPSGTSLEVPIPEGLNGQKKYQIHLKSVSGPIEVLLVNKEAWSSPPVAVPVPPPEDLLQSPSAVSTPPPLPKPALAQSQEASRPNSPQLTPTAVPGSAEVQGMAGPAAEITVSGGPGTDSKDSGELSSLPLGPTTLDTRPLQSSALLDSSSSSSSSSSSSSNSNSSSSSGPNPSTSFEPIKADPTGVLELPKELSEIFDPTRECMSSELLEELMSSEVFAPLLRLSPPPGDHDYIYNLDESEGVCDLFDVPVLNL
UniProt Q9UNI6, whole entry, looked up: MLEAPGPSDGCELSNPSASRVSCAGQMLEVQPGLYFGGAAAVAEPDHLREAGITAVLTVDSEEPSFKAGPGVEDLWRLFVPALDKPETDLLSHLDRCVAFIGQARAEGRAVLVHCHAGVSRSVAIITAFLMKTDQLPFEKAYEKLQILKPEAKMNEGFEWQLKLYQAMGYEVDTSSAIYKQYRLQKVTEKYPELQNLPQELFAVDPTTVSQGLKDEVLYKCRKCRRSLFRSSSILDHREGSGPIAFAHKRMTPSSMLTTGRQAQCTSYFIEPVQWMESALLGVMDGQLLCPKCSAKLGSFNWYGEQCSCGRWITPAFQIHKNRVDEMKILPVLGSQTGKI
UniProt P33316: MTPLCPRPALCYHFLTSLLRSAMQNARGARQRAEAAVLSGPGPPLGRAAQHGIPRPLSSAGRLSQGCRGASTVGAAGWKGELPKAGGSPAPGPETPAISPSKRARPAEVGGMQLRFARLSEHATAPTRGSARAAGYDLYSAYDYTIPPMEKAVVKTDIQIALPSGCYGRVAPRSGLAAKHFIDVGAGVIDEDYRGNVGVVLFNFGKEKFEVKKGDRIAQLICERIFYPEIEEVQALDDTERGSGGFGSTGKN
UniProt Q14126: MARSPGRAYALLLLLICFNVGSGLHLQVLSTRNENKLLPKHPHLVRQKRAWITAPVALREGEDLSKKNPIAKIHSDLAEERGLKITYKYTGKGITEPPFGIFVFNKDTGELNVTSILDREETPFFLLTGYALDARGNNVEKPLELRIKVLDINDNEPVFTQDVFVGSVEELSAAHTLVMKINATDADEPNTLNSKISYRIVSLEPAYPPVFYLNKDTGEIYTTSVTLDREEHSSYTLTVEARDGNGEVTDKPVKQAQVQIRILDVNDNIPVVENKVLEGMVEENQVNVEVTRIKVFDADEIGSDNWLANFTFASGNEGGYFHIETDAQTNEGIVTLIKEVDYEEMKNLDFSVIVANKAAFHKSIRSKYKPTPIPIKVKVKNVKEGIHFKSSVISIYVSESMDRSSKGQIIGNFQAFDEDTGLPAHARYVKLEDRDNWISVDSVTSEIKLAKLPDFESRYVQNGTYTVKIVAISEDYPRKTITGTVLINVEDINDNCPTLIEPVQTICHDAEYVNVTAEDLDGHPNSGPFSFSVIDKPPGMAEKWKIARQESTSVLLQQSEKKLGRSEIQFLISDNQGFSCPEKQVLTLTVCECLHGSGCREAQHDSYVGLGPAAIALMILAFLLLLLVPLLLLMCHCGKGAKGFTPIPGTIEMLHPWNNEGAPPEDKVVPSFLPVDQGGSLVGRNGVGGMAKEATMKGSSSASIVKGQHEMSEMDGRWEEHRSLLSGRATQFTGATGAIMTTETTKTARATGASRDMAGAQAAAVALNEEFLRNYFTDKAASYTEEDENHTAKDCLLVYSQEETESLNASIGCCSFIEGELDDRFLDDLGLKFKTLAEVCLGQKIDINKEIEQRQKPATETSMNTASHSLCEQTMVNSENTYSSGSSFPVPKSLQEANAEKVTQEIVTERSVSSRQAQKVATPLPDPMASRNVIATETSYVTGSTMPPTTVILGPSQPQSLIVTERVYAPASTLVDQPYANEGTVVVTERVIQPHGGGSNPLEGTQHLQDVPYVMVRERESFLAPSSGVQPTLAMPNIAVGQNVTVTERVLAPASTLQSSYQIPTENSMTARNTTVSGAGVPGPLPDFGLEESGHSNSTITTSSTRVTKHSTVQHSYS
UniProt Q92785, whole entry, looked up: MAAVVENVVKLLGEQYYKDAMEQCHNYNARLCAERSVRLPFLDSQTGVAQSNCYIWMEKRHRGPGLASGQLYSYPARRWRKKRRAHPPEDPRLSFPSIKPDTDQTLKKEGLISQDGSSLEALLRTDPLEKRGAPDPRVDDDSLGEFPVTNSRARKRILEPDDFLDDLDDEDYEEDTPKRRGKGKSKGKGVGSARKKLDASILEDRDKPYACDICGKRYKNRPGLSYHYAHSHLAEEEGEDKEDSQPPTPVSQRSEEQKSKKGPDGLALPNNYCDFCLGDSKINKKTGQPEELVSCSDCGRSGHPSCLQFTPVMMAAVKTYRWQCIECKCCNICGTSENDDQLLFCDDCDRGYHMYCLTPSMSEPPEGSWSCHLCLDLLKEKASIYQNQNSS

Compound in one experiment: CN1CCN(c2nc(C3=C(c4c[nH]c5ccccc45)C(=O)NC3=O)c3ccccc3n2)CC1 [sotrastaurin]
The experiment in a line: log2 fold change, soluble protein after heating vs DMSO (PISA); higher = thermal stabilisation; K562 lysate, 10 uM; active = over 0.2 and 3.5 SD of the protein, either way, in both replicates (recomputed). The procedure, abridged: (§1)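 Dounce homogenisation of K562 pellets in PBS pH 7.4 with 1 mM MgCl2 produced a crude extract, used at 1 mg/mL protein. Exposure to 10 μM compound lasted 30 min, and aliquots were then heated for 3 min across 48°C-58°C, pooled and brought to 0.5% NP-40 at 4°C. The supernatant after 21,000xg for 90 min was quantified by TMTpro 16plex LC-MS/MS with channel sums equalised. Duplicate values are given as log-two fold change in thermal stability relative to solvent controls.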
In the case of EEF1A1P5 (UniProt Q5VTE0), the log2 fold change was inactive: 0.025.
On the same count and under the same terms, then DRG2 (UniProt P55039), with inactive: 0.069; and DTYMK (UniProt P23919), with inactive: -0.033.
In the case of EARS2 (UniProt Q5JPH6), the log2 fold change was inactive: 0.007.
On the same count and under the same terms, then EIF1 (UniProt P41567), with inactive: -0.042; and EEF2 (UniProt P13639), with inactive: -0.004; and EIF1AX (UniProt P47813), with inactive: -0.061.
On to ECH1 (UniProt Q13011), for which the log2 fold change is active: 0.608.
As to EEF1B2 (UniProt P24534), the log2 fold change is inactive: 0.023.
The same measure, in the same setting: then DUSP9 (UniProt Q99956), with inactive: -0.038; and ECHDC3 (UniProt Q96DC8), with inactive: 0.006.
On the same count and under the same terms, in the case of DR1 (UniProt Q01658) it was inactive: 0.015; in that of DPP7 (UniProt Q9UHL4), inactive: 0.018; in that of DYNLT1 (UniProt P63172), inactive: -0.016.
For DPH2 (UniProt Q9BQC3), the log2 fold change was inactive: -0.017.
The same measure, in the same setting: in the case of DUSP23 (UniProt Q9BVJ7) it was inactive: 0.015; in that of DYNC1H1 (UniProt Q14204), inactive: 0.008; in that of EFL1 (UniProt Q7Z2Z2), inactive: 0.01.
DPY19L1, A0A1B0GW05: the log2 fold change is inactive: -0.007.
With EDF1 (UniProt O60869), the log2 fold change is inactive: 0.025.
Take EHMT2 (UniProt A2ABF8): the log2 fold change was inactive: 0.027.
As to E2F3 (UniProt O00716), the log2 fold change was inactive: -0.016.
As for EEF1AKMT2, A0A494BZY7, the log2 fold change is inactive: -0.003.
On the same count and under the same terms, then E2F4 (UniProt Q16254), with inactive: 0.04.
For the target DUSP12 (UniProt Q9UNI6), the log2 fold change was inactive: 0.009.
In the case of DUT (UniProt P33316), the log2 fold change was inactive: -0.034.
In the case of DSG2 (UniProt Q14126), the log2 fold change is inactive: -0.037.
For the target EIF1AD (UniProt Q8N9N8), the log2 fold change is inactive: -0.009.
With DPF2 (UniProt Q92785), the log2 fold change is inactive: -0.018.
Same read-out and setting: in the case of EEF1AKNMT (UniProt Q8N6R0) it was inactive: 0.008; in that of EDEM3 (UniProt Q9BZQ6), inactive: 0.025.
As for EEF1G isoform 2 (UniProt P26641), the log2 fold change was inactive: 0.007.

Compound in another experiment: CN1CC[C@H](c2c(O)cc(O)c3c(=O)cc(-c4ccccc4Cl)oc23)[C@H](O)C1 [alvocidib]
The experiment is described as above. The method in brief:
as §1
With EEF1A1P5 (UniProt Q5VTE0), the log2 fold change was inactive: -0.022.
Consider DRG2 (UniProt P55039), for which the log2 fold change is inactive: 0.026.
For DTYMK (UniProt P23919), the log2 fold change is inactive: 0.037.
Still for that read-out and setting: then EARS2 (UniProt Q5JPH6), with inactive: -0.08; and EIF1 (UniProt P41567), with inactive: -0.033.
EEF2 (UniProt P13639): the log2 fold change was inactive: 0.017.
As to EIF1AX (UniProt P47813), the log2 fold change was inactive: 0.007.
With ECH1 (UniProt Q13011), the log2 fold change was inactive: 0.017.
The same measure, in the same setting: in the case of EEF1B2 (UniProt P24534) it was inactive: -0.001; in that of DUSP9 (UniProt Q99956), inactive: -0.054; in that of ECHDC3 (UniProt Q96DC8), inactive: -0.015.
On the same count and under the same terms, then DR1 (UniProt Q01658), with inactive: -0.02; and DPP7 (UniProt Q9UHL4), with inactive: -0.014.
Same read-out and setting: in the case of DYNLT1 (UniProt P63172) it was inactive: -0.012.
For the target DPH2 (UniProt Q9BQC3), the log2 fold change is inactive: -0.028.
On to DUSP23 (UniProt Q9BVJ7), for which the log2 fold change was inactive: 0.003.
Turning to DYNC1H1 (UniProt Q14204), the log2 fold change was inactive: 0.009.
Same read-out and setting: in the case of EFL1 (UniProt Q7Z2Z2) it was inactive: 0.03; in that of DPY19L1, A0A1B0GW05, inactive: 0.047.
On the same count and under the same terms, then EDF1 (UniProt O60869), with inactive: 0.01; and EHMT2 (UniProt A2ABF8), with inactive: -0.023.
Turning to E2F3 (UniProt O00716), the log2 fold change is inactive: -0.049.
On the same count and under the same terms, then EEF1AKMT2, A0A494BZY7, with inactive: 0.015; and E2F4 (UniProt Q16254), with inactive: 0.003; and DUSP12 (UniProt Q9UNI6), with inactive: -0.005.
Still for that read-out and setting: then DUT (UniProt P33316), with inactive: -0.027.
Same read-out and setting: then DSG2 (UniProt Q14126), with inactive: -0.023; and EIF1AD (UniProt Q8N9N8), with inactive: 0.009.
As to DPF2 (UniProt Q92785), the log2 fold change is inactive: 0.035.
For EEF1AKNMT (UniProt Q8N6R0), the log2 fold change was inactive: 0.009.
On to EDEM3 (UniProt Q9BZQ6), for which the log2 fold change was inactive: -0.021.
Turning to EEF1G isoform 2 (UniProt P26641), the log2 fold change was inactive: 0.014.

(Values after the supplement of paper PMC10849652.)
